This note sets out measurements from PMC8724738, “Exon‐independent recruitment of SRSF1 is mediated by U1 snRNP stem‐loop 3”.

Amino acid sequences for entries named in this document (tags omitted). Residues count along the entry.
UniProt Q07955, 1-197, stated change not applied: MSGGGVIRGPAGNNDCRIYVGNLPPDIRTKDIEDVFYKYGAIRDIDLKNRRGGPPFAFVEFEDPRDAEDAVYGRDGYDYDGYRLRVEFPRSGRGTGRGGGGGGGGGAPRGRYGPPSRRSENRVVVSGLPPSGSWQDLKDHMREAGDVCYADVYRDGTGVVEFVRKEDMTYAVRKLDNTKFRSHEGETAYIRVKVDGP

For at least one entry, the source does not settle the construct or the ends of the probe. At least one verdict rests on a figure or table, not on a statement of the authors.

In this series the target is SRSF1ΔRS del198-248 (UniProt Q07955). The experiment in a line: NMR. The settings on record: NMR/ITC: 10 mM NaPO4 pH 7.0, 50 mM L-Arg, 50 mM L-Glu, 5 mM DTT (TCEP for ITC); NMR 313 K (FUS 30 C), ITC 27 C; recombinant protein; residues 1-197.

As for UCAGAGGA [ssRNA UCAGAGGA], the binding result is “binds”.
